Percent effect of library compounds

The chains behind the UniProt entries cited, without tags or fusion partners. Residues count along the entry.
UniProt Q8IDJ8, 1-583: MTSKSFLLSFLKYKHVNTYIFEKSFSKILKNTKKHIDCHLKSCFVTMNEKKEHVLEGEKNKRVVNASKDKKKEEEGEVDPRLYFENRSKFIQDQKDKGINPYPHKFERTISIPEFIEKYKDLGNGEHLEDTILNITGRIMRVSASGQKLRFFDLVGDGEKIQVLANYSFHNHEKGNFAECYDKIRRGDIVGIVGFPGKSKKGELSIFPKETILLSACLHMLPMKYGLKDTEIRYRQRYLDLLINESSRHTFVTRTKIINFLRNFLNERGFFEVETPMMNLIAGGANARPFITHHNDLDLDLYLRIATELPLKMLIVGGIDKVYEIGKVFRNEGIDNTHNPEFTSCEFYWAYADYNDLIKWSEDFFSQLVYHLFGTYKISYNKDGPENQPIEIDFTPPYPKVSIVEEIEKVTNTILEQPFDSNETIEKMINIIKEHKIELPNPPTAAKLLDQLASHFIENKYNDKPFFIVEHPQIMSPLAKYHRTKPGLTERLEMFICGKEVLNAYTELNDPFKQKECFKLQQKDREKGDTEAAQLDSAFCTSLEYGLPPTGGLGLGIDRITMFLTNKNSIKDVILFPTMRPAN
UniProt A4I591, 1-473: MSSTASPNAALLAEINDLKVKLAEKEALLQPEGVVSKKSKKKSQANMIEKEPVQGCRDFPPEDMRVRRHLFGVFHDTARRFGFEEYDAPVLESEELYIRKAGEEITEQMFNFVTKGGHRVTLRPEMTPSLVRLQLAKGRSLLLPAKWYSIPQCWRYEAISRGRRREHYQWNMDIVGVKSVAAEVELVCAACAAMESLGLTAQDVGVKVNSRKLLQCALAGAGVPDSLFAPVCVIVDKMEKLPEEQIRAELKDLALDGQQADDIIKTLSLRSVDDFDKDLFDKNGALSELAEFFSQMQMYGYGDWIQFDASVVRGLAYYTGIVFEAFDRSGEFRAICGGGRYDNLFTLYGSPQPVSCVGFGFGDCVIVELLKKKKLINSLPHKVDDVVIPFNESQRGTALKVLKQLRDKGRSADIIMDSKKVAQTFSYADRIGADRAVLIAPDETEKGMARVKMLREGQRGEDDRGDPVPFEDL

From ChEMBL document CHEMBL3988442, “University of Dundee, Small-Polar-MMV Screening Library” (2021).

A: 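Whole-parasite assay of Trypanosoma brucei over 72 hours; the read-out is not stated. Compounds at 30 µM. Direction is inferred from retests: higher values go with stronger inhibition. Values scatter widely below zero; nearly all retest evidence comes from the higher of the two concentrations used. Of about 64,000 compounds tested this way, about 940 (1.5%) reached 50% or more in at least one test.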
B: 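Lysine-tRNA ligase, Plasmodium falciparum 3D7 (UniProt Q8IDJ8). Enzyme assay of the cytosolic lysyl-tRNA synthetase in 384-well plates, read by luminescence. Tested at 30 µM. Direction is inferred from only a few compounds that gave an IC50; most scored high, so higher reads as stronger inhibition. About 69,000 compounds were tested under these conditions; 0.071% (about 49) showed 50% or more at least once.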
C: 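Enzyme assay of histidyl-tRNA synthetase; the read-out is not stated. Target: Histidine-tRNA ligase, Leishmania infantum (UniProt A4I591). Tested at 30 µM. Higher reads as stronger inhibition (inferred: compounds with an IC50 in retests scored well above the rest). The assay is labelled LdHisRS but filed under L. infantum. About 69,000 compounds were tested under these conditions; 0.6% (about 410) showed 50% or more at least once.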
D: 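Assay of Toxoplasma gondii numbers, read through their beta-galactosidase reporter with a colour substrate. Compounds at 10 µM. The record gives no direction; the compounds picked for IC50 retests had high values, so higher reads as fewer parasites. About 67,000 compounds were tested under these conditions; 0.38% (about 260) showed 50% or more at least once.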

Values are the deposited “Percent Effect”, in %. The record does not define 0% and 100%; most values in the screen are far below 50% and negative numbers occur (in some assays of this library far below -100). The compounds are a random part of those screened. A dash means the value is not listed here; it may have been measured.

structure: O=C(CC1CC1)N1CCC2(CC1)CN(Cc1cccnc1)C(=O)CO2.O=C(O)C(F)(F)F
A: -36.33%
D: 1.405%

structure: Cc1ccsc1-c1cc(C(=O)O)cc(S(=O)(=O)NCc2ccccn2)c1
B: 3.244%
C: 23.08%
D: -10.55%

structure: CN(C)CCNC(=O)c1cc2n(n1)CCN(C(=O)c1ccco1)C2
A: -35.85%
B: 3.436%
C: 14.52%
D: 7.659%

structure: CCCN(C(=O)COCC)c1cccc(C)c1
A: 0.8922%
B: 4.922%
C: 2.941%
D: -4.524%

structure: Cc1nnc(CN2CCC(N(C)Cc3nnc(C4CC4)n3C)C2)o1 (stereo unspecified)
A: -14.07%
B: 4.287%
C: 9.524%
D: 4.538%

structure: CCCc1n[nH]c(C2CN(C(=O)c3cc4c(s3)CCC4)CCO2)n1 (stereo unspecified)
B: -1.355%
C: 6.78%
D: -0.8709%

structure: CC(C)N1CCOC(CC(=O)N2CCCN(Cc3cccs3)CC2)C1 (stereo unspecified)
A: -15.75%
B: -1.7%
C: -2.797%
D: -5.08%

structure: CN(CCCc1ccccc1)C(=O)CCc1nc(-c2nnc[nH]2)no1
A: -12.74%
B: 7.069%
C: -2.632%
D: -3.889%

structure: O=C(O)C(F)(F)F.[H][C@]12CCN(C(=O)C3CCOC3)[C@@]1([H])CCC(=O)N2Cc1ccncc1 (stereo partly specified)
A: -22.31%
D: -2.78%

structure: CN1CCCC(c2cncc(C(=O)NCc3ccccc3Cl)n2)C1 (stereo unspecified)
B: 2.151%
C: 8.511%

structure: O=C(NCc1cccnc1)c1cn(CCc2ccccc2)nn1
A: -15.5%
B: -2.992%
C: 4.027%
D: 7.216%

structure: CCS(=O)(=O)N1CCc2nnc(CN(C)C(C)C)n2CC1
A: -62.68%
B: -4.139%
C: -3.509%
D: 1.449%

structure: CC(C)NC(=O)[C@]12COC[C@H]1CN(Cc1cnn(C)c1)C2
B: 3.149%
C: 12.5%

structure: Clc1cccc(C[C@@H]2NCCC[C@@H]2Nc2ccccc2)c1
B: 0.9444%
C: 11.27%

structure: CC(C)Cc1noc(CN2CCCC2c2noc(C3CC3)n2)n1 (stereo unspecified)
A: -17.16%
B: 2.096%
C: 13.16%
D: 22.59%

structure: Cc1cc(SC(C)(C)C)ccc1NCC(=O)NC(N)=O
A: -6.361%
B: 2.832%
C: 17.09%
D: 9.944%

structure: CCN1CC2(CCN(C(=O)C(C)Oc3cccc(Cl)c3)CC2)OC1=O (stereo unspecified)
A: -26.19%
B: 4.194%
C: 18.33%
D: -0.1082%

structure: O=C(O)C(F)(F)F.[H][C@@]12CCN(CC3CCC3)C[C@@]1([H])[C@H](C(=O)NC1CC1)CCO2
A: -40.55%
D: -20.57%

structure: Cc1cc(C(=O)N(C)CCN(C)C(=O)OC(C)(C)C)oc1C
A: -5.506%
B: -0.8946%
C: 6.218%
D: 3.098%

structure: CCCC1CCCN(C(=O)CNC(=O)c2ccoc2C)CC1 (stereo unspecified)
A: -29.29%
B: 3.293%
C: 12.61%
D: -5.997%

Repeated from the top, 2 entries:

structure	A	B	C	D
O=C(CC1CC1)N1CCC2(CC1)CN(Cc1cccnc1)C(=O)CO2.O=C(O)C(F)(F)F	-36.33%	-	-	1.405%
Cc1ccsc1-c1cc(C(=O)O)cc(S(=O)(=O)NCc2ccccn2)c1	-	3.244%	23.08%	-10.55%